The test concerns the target TRPC5 labeled with eGFP or mCherry (not stated (human or mouse cDNA cloned)) (UniProt Q9UL62). The test is described as follows: FRET or BRET; acceptor photobleaching FRET (eGFP donor, mCherry acceptor) by confocal microscopy in live HEK293T cells, 37°C, 5% CO2; the two tagged subunits co-transfected in the same proportion.

Sequences of proteins named here, by UniProt entry; tags and fusion partners are left off.
UniProt Q9UL62: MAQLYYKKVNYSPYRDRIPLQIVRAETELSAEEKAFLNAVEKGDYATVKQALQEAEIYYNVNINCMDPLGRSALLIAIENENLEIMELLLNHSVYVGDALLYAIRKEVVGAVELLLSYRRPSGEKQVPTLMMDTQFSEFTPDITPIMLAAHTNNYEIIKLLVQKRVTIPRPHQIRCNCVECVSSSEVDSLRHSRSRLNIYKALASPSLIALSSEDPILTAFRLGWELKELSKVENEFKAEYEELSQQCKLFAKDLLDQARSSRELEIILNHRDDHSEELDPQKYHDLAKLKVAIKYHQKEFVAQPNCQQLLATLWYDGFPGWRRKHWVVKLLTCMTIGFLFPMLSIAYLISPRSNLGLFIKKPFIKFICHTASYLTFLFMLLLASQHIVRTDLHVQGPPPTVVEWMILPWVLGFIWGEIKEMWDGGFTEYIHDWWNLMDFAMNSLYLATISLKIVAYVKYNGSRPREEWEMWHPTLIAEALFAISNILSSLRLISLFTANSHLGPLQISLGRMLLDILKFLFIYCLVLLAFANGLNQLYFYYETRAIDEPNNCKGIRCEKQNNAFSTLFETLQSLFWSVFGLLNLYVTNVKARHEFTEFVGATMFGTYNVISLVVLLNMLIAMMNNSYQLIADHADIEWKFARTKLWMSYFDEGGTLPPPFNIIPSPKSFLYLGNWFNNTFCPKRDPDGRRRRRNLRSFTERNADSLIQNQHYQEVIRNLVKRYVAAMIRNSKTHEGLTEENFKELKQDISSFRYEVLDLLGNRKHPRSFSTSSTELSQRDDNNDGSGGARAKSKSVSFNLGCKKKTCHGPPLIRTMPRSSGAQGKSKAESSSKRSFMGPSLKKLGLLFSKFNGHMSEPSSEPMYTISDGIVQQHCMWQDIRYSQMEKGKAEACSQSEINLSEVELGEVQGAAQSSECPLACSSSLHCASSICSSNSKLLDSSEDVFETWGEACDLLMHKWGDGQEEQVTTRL

These are yes or no findings as the source states them, for the method shown. Binding seen in cells or lysates may run through a third protein. Some results given as binding are weak or reduced against the parent protein; the word gives no strength.

Turning to “TRPC5 labeled with eGFP or mCherry (from UniProt Q9UL62 1-973)”, the binding result was “binds”.
